Assay results published in paper PMC9837035 (Nature Communications, 2023).
Several values for one entry are separate records, joined by “and”; a condition that tells them apart may be missing. Equal entries are not always repeated. This continues a long series; more values of the same kind are listed elsewhere.

Legend:
[1] = Body weight of mice during 5-week administration; assay type: in vivo; settings: 50 mg/kg i.p., Day 0
Description: The dosing solution contained 15% DMSO, 17.5% Cremophor EL, 8.75% EtOH, 8.75% HCO-40, and 50% PBS. Blood samples were collected once a week by Retro Orbital Sampling (75 μL Calibrated Micropipette; Drummond Scientific Company) during isoflurane anesthesia. Blood RNA was extracted using NucleoSpin RNA Blood (Takara Bio Inc.). The weight of each mouse was measured every 3 or 4 days.

[2] = Mouse acute toxicity assay, body weight; assay type: in vivo, mice; settings: 100 mg/kg
Description: All animal studies were approved by the Institutional Committee for Animal Experiments of the Institute of Microbial Chemistry, and were performed in accordance with relevant guidelines and regulations to minimize animal suffering. Four-week-old female ICR mice were purchased from Charles River Breeding Laboratories (Yokohama, Japan) and maintained in a specific pathogen-free barrier facility. […] Samples were dissolved in saline containing 10% DMSO and 1% Tween 80 and injected intravenously into mice.

SMILES: Cc1c(C(=O)NC(CCC2CC2)C(=O)Nc2ccc(C#N)cc2)[nH]c2c1C(=O)CC(C)(C)C2 (centres unmarked) [RK-701]
- body weight of individual mice [1]: 16.2 g
- The body weight of individual mice ([2]; Day3): 24.54 g and 23.99 g
- The body weight of individual mice ([2]; Day4): 23.32 g and 25.65 g and 24.34 g
- The body weight of individual mice ([2]; Day5): 23.82 g and 26.48 g and 24.91 g
- The body weight of individual mice ([2]; Day7): 25.76 g and 27.58 g and 26.65 g
- The body weight of individual mice ([2]; Day9): 24.76 g and 27.51 g and 26.40 g
- The body weight of individual mice ([2]; Day11): 27.68 g and 26.45 g and 27.52 g
- The body weight of individual mice ([2]; Day14): 27.68 g and 26.56 g and 28.28 g
